Results from patent publication US9187459B2, “Quinazoline-7-ether compounds and methods of use” (NewGen Therapeutics, Inc., priority 2011, dated 2015).
At least one compound was matched to its structure with a doubt left.

Test system: NCI-H1975 xenograft
Assay: In vivo efficacy in NCI-H1975 xenograft mouse model
Design: species or system Balb/c nude mice
Details: NT112 10 and 20 mg/kg po qd; afatinib 20 mg/kg po qd; erlotinib 100 mg/kg po qd; 4 weeks; FIG. 1

Q: For `CN(C)C/C=C/C(=O)Nc1cc2c(Nc3ccc(F)c(Cl)c3)ncnc2cc1OC[C@H]1[C@@H]2COC[C@@H]21` [NT112], which “anticancer effect on the H1975 xenograft in comparison with erlotinib and afatinib” value is on record?
A: significantly more effective than erlotinib; and comparable with afatinib
